In PubChem BioAssay AID272 (DTP/NCI, 2004):
The list shows only some results of the screen, not a fair sample: it gathers tests that were run many times, whatever their T/C, doses with no T/C, and many T/C values between a quarter and a half above the control. Further doses and runs are listed elsewhere. T/C: endpoint of the treated group in % of that of the vehicle group. Schedule codes are those of the source, read here as Q, the interval in days (D) or hours (H), X, the number of doses. Some entries give survivors of the animals treated and no T/C: the source files T/C as zero there, which appears to mark a toxic dose or a test without result, not a measured value. Some survivor counts are full or nearly so, which does not show that the dose was tolerated: the source hardly ever lists a survival T/C far under the control, and the zero likely stands for such cases as well. Counts of survivors are from the toxicity check (mostly the fifth day) where no day follows; animals may have died later. Signs of the kind (2×) give the number of equal values in this list. Some doses were run more than once; the results are listed from low to high. For survival time, this PubChem deposit counts one and a half times the control or more as active, and values a quarter to a half above the control carry no call in these data; other NCI protocols may use other cut-offs. Some T/C values carry the count of animals alive at the toxicity check (mostly the fifth day); where none is given, no animal had died by that day.

System: Lewis lung carcinoma i.m., BDF1 mice, T/C %
Test: NCI In Vivo Anticancer Drug Screen. Data for tumor model Lewis Lung Carcinoma (intramuscular) in B6D2F1 (BDF1) mice
How it was run: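 Value is the ratio of a treated-group measurement (T) to the matching vehicle-control measurement (C), using either survival or tumour size in mice bearing transplanted tumours.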

[1] = T/C endpoint: median survival time, dose: 0.5 mg/kg/injection, schedule: Q01DX011 (ip), vehicle: saline, higher T/C = longer survival
[2] = T/C endpoint: median survival time, dose: 1.0 mg/kg/injection, schedule: Q01DX011 (ip), vehicle: saline, higher T/C = longer survival
[3] = T/C endpoint: median survival time, dose: 20.0 mg/kg/injection, schedule: Q01DX011 (ip), vehicle: saline, higher T/C = longer survival
[4] = T/C endpoint: median survival time, dose: 40.0 mg/kg/injection, schedule: Q01DX011 (ip), vehicle: saline, higher T/C = longer survival
[5] = T/C endpoint: median survival time, dose: 80.0 mg/kg/injection, schedule: Q01DX011 (ip), vehicle: saline, higher T/C = longer survival
[6] = T/C endpoint: median survival time, dose: 200.0 mg/kg/injection, schedule: Q01DX011 (ip), vehicle: Klucel (hydroxypropylcellulose) (HPC), higher T/C = longer survival

CCCCCCC(=O)O[C@H]1CC[C@H]2[C@@H]3CCC4=CC(=O)CC[C@]4(C)[C@H]3CC[C@]12C
survivor count (T/C endpoint: median survival time, dose: 10.0 mg/kg/injection, schedule: Q01DX009 (ip), vehicle: Klucel (hydroxypropylcellulose) (HPC), higher T/C = longer survival): 10 of 10

CCCCn1cnc2c(N)ncnc21
survivor count (T/C endpoint: mean tumor weight (est.), dose: 100.0 mg/kg/injection, schedule: Q01DX011 (ip), vehicle: saline with Tween-80, higher T/C = larger tumour): 5 of 8
survivor count (T/C endpoint: median survival time, dose: 100.0 mg/kg/injection, schedule: Q01DX011 (ip), vehicle: saline with Tween-80, higher T/C = longer survival): 5 of 8

ClC1(c2ccccc2)c2ccc(Br)cc2-c2cc(Br)ccc21
survivor count (T/C endpoint: mean tumor weight (est.), dose: 400.0 mg/kg/injection, schedule: Q01DX011 (ip), vehicle: saline, higher T/C = larger tumour): 4 of 8
survivor count (T/C endpoint: median survival time, dose: 400.0 mg/kg/injection, schedule: Q01DX011 (ip), vehicle: saline, higher T/C = longer survival): 4 of 8

Cn1c(Cl)nc2c(Cl)nc(Cl)nc21
survivor count (T/C endpoint: median survival time, dose: 32.0 mg/kg/injection, schedule: Q01DX011 (ip), vehicle: saline with Tween-80, higher T/C = longer survival): 0 of 8

[N-]=[N+]=CC(=O)CCC(N)C(=O)O (configuration not stated)
survivor count (T/C endpoint: mean tumor weight, dose: 120.0 micrograms/kg/injection, schedule: Q01DX011 (ip), vehicle: saline, higher T/C = larger tumour): 5 of 8
survivor count (T/C endpoint: median survival time, dose: 0.12 mg/kg/injection, schedule: Q01DX011 (ip), vehicle: saline, higher T/C = longer survival): 2 of 8
survivor count (T/C endpoint: median survival time, dose: 0.25 mg/kg/injection, schedule: Q01DX011 (ip), vehicle: saline, higher T/C = longer survival): 0 of 8
survivor count [1]: 0 of 8
survivor count [2]: 0 of 8
survivor count (T/C endpoint: median survival time, dose: 15.0 micrograms/kg/injection, schedule: Q01DX011 (ip), vehicle: saline, higher T/C = longer survival): 6 of 8
survivor count (T/C endpoint: median survival time, dose: 120.0 micrograms/kg/injection, schedule: Q01DX011 (ip), vehicle: saline, higher T/C = longer survival): 5 of 8

O=c1[nH]cc(F)c(=O)[nH]1
survivor count (T/C endpoint: mean tumor weight (est.), dose: 5.0 mg/kg/injection, schedule: Q01DX011 (ip), vehicle: saline with Tween-80, higher T/C = larger tumour): 4 of 8
T/C (T/C endpoint: mean tumor weight, dose: 5.0 mg/kg/injection, schedule: Q01DX011 (ip), vehicle: saline, evaluated on day 12, higher T/C = larger tumour): 146 % of control
T/C (T/C endpoint: median survival time, dose: 5.0 mg/kg/injection, schedule: Q01DX011 (ip), vehicle: saline, evaluated on day 39, higher T/C = longer survival): 104 % of control [7 of 8 alive]
T/C (T/C endpoint: median survival time, dose: 5.0 mg/kg/injection, schedule: Q01DX011 (ip), vehicle: saline, evaluated on day 40, higher T/C = longer survival): 97 % of control
T/C (T/C endpoint: median survival time, dose: 5.0 mg/kg/injection, schedule: Q01DX011 (ip), vehicle: saline, evaluated on day 47, higher T/C = longer survival): 98 % of control [7 of 8 alive]
T/C (T/C endpoint: median survival time, dose: 5.0 mg/kg/injection, schedule: Q01DX011 (ip), vehicle: saline, evaluated on day 50, higher T/C = longer survival): 107 % of control
survivor count (T/C endpoint: median survival time, dose: 5.0 mg/kg/injection, schedule: Q01DX011 (ip), vehicle: saline, higher T/C = longer survival): 4 of 8
T/C (T/C endpoint: median survival time, dose: 10.0 mg/kg/injection, schedule: Q01DX011 (ip), vehicle: saline, evaluated on day 39, higher T/C = longer survival): 91 % of control [7 of 8 alive]
T/C (T/C endpoint: median survival time, dose: 10.0 mg/kg/injection, schedule: Q01DX011 (ip), vehicle: saline, evaluated on day 40, higher T/C = longer survival): 107 [7 of 8 alive] and 123 % of control
T/C (T/C endpoint: median survival time, dose: 10.0 mg/kg/injection, schedule: Q01DX011 (ip), vehicle: saline, evaluated on day 47, higher T/C = longer survival): 109 % of control
T/C (T/C endpoint: median survival time, dose: 10.0 mg/kg/injection, schedule: Q01DX011 (ip), vehicle: saline, evaluated on day 50, higher T/C = longer survival): 108 % of control
T/C (T/C endpoint: median survival time, dose: 20.0 mg/kg/injection, schedule: Q01DX011 (ip), vehicle: saline, evaluated on day 40, higher T/C = longer survival): 130 % of control
T/C (T/C endpoint: median survival time, dose: 20.0 mg/kg/injection, schedule: Q01DX011 (ip), vehicle: saline, evaluated on day 47, higher T/C = longer survival): 115 % of control [7 of 8 alive]
survivor count [3]: 3 of 8, 7 of 8, 8 of 8
survivor count (T/C endpoint: median survival time, dose: 40.0 mg/kg/injection, schedule: Q01DX009 (ip), vehicle: saline, higher T/C = longer survival): 10 of 10
survivor count (T/C endpoint: median survival time, dose: 40.0 mg/kg/injection, schedule: Q01DX011 (ip), vehicle: other, higher T/C = longer survival): 0 of 8
survivor count [4]: 0 of 8 (4×)
survivor count (T/C endpoint: median survival time, dose: 80.0 mg/kg/injection, schedule: Q01DX009 (ip), vehicle: saline, higher T/C = longer survival): 10 of 10
survivor count (T/C endpoint: median survival time, dose: 80.0 mg/kg/injection, schedule: Q01DX011 (ip), vehicle: other, higher T/C = longer survival): 0 of 8
survivor count [5]: 0 of 8 (3×)
survivor count (T/C endpoint: median survival time, dose: 100.0 mg/kg/injection, schedule: Q04DX004 (ip), vehicle: saline, higher T/C = longer survival): 8 of 8
survivor count (T/C endpoint: median survival time, dose: 200.0 mg/kg/injection, schedule: Q04DX004 (ip), vehicle: saline, higher T/C = longer survival): 8 of 8

CC(=O)OCC1OC(n2ncc(=O)[nH]c2=O)C(OC(C)=O)C1OC(C)=O (configuration not stated)
survivor count (T/C endpoint: mean tumor weight (est.), dose: 100.0 mg/kg/injection, schedule: Q01DX011 (ip), vehicle: water, higher T/C = larger tumour): 4 of 8
survivor count (T/C endpoint: mean tumor weight, dose: 1600.0 mg/kg/injection, schedule: Q01DX011 (ip), vehicle: Klucel (hydroxypropylcellulose) (HPC), higher T/C = larger tumour): 4 of 8
survivor count (T/C endpoint: median survival time, dose: 12.5 mg/kg/injection, schedule: Q01DX011 (ip), vehicle: Klucel (hydroxypropylcellulose) (HPC), higher T/C = longer survival): 6 of 8
survivor count (T/C endpoint: median survival time, dose: 25.0 mg/kg/injection, schedule: Q01DX011 (ip), vehicle: Klucel (hydroxypropylcellulose) (HPC), higher T/C = longer survival): 7 of 8
survivor count (T/C endpoint: median survival time, dose: 50.0 mg/kg/injection, schedule: Q01DX011 (ip), vehicle: Klucel (hydroxypropylcellulose) (HPC), higher T/C = longer survival): 6 of 8
survivor count (T/C endpoint: median survival time, dose: 100.0 mg/kg/injection, schedule: Q01DX011 (ip), vehicle: Klucel (hydroxypropylcellulose) (HPC), higher T/C = longer survival): 2 of 8
survivor count (T/C endpoint: median survival time, dose: 100.0 mg/kg/injection, schedule: Q01DX011 (ip), vehicle: water, higher T/C = longer survival): 4 of 8
T/C [6]: 132 % of control [6 of 8 alive]
survivor count [6]: 8 of 8
survivor count (T/C endpoint: median survival time, dose: 400.0 mg/kg/injection, schedule: Q01DX011 (ip), vehicle: Klucel (hydroxypropylcellulose) (HPC), higher T/C = longer survival): 8 of 8
survivor count (T/C endpoint: median survival time, dose: 800.0 mg/kg/injection, schedule: Q01DX011 (ip), vehicle: Klucel (hydroxypropylcellulose) (HPC), higher T/C = longer survival): 8 of 8
survivor count (T/C endpoint: median survival time, dose: 1600.0 mg/kg/injection, schedule: Q01DX011 (ip), vehicle: Klucel (hydroxypropylcellulose) (HPC), higher T/C = longer survival): 4 of 8

Cc1n(CC(C)C)c2c([n+]1C)C(=O)c1ccccc1C2=O
survivor count (T/C endpoint: mean tumor weight (est.), dose: 1.0 mg/kg/injection, schedule: Q01DX011 (ip), vehicle: saline with Tween-80, higher T/C = larger tumour): 3 of 8
survivor count (T/C endpoint: median survival time, dose: 1.0 mg/kg/injection, schedule: Q01DX011 (ip), vehicle: saline with Tween-80, higher T/C = longer survival): 3 of 8
survivor count (T/C endpoint: median survival time, dose: 4.0 mg/kg/injection, schedule: Q01DX011 (ip), vehicle: saline with Tween-80, higher T/C = longer survival): 0 of 8
survivor count (T/C endpoint: median survival time, dose: 8.0 mg/kg/injection, schedule: Q01DX011 (ip), vehicle: saline with Tween-80, higher T/C = longer survival): 0 of 8

CC(C)S(=O)(=O)/C(Cl)=C(/Cl)C(Cl)=C(Cl)Cl
survivor count (T/C endpoint: mean tumor weight, dose: 200.0 mg/kg/injection, schedule: Q01DX011 (ip), vehicle: sodium bicarbonate, higher T/C = larger tumour): 2 of 8
survivor count (T/C endpoint: median survival time, dose: 25.0 mg/kg/injection, schedule: Q01DX011 (ip), vehicle: sodium bicarbonate, higher T/C = longer survival): 6 of 8
survivor count (T/C endpoint: median survival time, dose: 100.0 mg/kg/injection, schedule: Q01DX011 (ip), vehicle: sodium bicarbonate, higher T/C = longer survival): 6 of 8
survivor count (T/C endpoint: median survival time, dose: 200.0 mg/kg/injection, schedule: Q01DX011 (ip), vehicle: sodium bicarbonate, higher T/C = longer survival): 2 of 8

CS(=O)(=O)OCCCNCCCOS(C)(=O)=O
T/C [3]: 131 % of control
survivor count [3]: 7 of 8
survivor count [4]: 10 of 10
survivor count [5]: 0 of 10, 0 of 8, 7 of 10
survivor count (T/C endpoint: median survival time, dose: 160.0 mg/kg/injection, schedule: Q01DX011 (ip), vehicle: saline, higher T/C = longer survival): 0 of 10

C[C@]12CC[C@H](OC3OC(CO)C(O)C(O)C3O)C[C@H]1CC[C@@H]1[C@@H]2CC[C@]2(C)[C@@H](C3=CCOC3=O)CC[C@]12O (some centres not stated)
survivor count [1]: 7 of 8
survivor count [2]: 0 of 8
survivor count (T/C endpoint: median survival time, dose: 2.0 mg/kg/injection, schedule: Q01DX011 (ip), vehicle: saline, higher T/C = longer survival): 0 of 8
survivor count (T/C endpoint: median survival time, dose: 25.0 mg/kg/injection, schedule: Q01DX011 (ip), vehicle: saline, higher T/C = longer survival): 0 of 8
survivor count (T/C endpoint: median survival time, dose: 50.0 mg/kg/injection, schedule: Q01DX011 (ip), vehicle: saline, higher T/C = longer survival): 0 of 8
survivor count (T/C endpoint: median survival time, dose: 100.0 mg/kg/injection, schedule: Q01DX011 (ip), vehicle: saline, higher T/C = longer survival): 0 of 8
survivor count (T/C endpoint: median survival time, dose: 200.0 mg/kg/injection, schedule: Q01DX011 (ip), vehicle: saline, higher T/C = longer survival): 0 of 8
